The source of these data is article PMC10397212.

The chains behind the UniProt entries cited, without tags or fusion partners. Where a name states a change or a piece, a line headed by the entry shows the natural chain unless it says otherwise. A line that says so, or that is headed by a name, gives the form on record, which may keep a tag or linker.
UniProt Q15075: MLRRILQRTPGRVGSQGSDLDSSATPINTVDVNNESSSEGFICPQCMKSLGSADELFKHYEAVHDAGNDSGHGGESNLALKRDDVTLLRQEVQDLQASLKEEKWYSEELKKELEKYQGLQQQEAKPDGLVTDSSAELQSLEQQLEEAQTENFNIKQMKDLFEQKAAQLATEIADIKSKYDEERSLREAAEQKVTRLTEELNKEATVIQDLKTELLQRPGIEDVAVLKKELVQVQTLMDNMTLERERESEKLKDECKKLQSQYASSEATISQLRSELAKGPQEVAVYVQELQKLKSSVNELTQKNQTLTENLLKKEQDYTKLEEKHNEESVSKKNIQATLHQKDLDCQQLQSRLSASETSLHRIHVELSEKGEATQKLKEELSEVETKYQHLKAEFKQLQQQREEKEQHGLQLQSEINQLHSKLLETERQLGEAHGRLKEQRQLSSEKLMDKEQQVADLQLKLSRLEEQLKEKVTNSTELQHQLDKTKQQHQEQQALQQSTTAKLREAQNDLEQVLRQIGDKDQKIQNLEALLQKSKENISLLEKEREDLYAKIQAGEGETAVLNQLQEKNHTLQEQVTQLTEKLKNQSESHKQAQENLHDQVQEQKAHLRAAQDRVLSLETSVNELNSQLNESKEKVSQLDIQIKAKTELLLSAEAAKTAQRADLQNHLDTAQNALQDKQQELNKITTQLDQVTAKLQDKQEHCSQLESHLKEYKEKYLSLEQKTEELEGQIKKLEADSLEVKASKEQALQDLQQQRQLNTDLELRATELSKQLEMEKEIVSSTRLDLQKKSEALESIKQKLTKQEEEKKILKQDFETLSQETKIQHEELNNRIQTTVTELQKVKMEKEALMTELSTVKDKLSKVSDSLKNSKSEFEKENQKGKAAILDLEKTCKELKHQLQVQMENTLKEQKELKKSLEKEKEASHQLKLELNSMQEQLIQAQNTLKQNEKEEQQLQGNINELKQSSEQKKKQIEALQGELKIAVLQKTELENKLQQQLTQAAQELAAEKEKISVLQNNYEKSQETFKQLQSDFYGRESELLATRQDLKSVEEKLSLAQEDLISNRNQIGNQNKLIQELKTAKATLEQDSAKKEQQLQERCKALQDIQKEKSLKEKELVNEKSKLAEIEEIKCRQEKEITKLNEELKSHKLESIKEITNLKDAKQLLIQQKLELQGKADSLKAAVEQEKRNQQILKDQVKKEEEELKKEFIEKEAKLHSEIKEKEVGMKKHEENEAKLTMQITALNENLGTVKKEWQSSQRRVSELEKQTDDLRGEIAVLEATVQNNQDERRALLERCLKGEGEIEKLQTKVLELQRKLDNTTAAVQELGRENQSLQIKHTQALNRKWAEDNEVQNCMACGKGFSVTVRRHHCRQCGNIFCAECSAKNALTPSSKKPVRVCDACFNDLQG
EEA1-CTmut TagRFP-T (Q15075, form named): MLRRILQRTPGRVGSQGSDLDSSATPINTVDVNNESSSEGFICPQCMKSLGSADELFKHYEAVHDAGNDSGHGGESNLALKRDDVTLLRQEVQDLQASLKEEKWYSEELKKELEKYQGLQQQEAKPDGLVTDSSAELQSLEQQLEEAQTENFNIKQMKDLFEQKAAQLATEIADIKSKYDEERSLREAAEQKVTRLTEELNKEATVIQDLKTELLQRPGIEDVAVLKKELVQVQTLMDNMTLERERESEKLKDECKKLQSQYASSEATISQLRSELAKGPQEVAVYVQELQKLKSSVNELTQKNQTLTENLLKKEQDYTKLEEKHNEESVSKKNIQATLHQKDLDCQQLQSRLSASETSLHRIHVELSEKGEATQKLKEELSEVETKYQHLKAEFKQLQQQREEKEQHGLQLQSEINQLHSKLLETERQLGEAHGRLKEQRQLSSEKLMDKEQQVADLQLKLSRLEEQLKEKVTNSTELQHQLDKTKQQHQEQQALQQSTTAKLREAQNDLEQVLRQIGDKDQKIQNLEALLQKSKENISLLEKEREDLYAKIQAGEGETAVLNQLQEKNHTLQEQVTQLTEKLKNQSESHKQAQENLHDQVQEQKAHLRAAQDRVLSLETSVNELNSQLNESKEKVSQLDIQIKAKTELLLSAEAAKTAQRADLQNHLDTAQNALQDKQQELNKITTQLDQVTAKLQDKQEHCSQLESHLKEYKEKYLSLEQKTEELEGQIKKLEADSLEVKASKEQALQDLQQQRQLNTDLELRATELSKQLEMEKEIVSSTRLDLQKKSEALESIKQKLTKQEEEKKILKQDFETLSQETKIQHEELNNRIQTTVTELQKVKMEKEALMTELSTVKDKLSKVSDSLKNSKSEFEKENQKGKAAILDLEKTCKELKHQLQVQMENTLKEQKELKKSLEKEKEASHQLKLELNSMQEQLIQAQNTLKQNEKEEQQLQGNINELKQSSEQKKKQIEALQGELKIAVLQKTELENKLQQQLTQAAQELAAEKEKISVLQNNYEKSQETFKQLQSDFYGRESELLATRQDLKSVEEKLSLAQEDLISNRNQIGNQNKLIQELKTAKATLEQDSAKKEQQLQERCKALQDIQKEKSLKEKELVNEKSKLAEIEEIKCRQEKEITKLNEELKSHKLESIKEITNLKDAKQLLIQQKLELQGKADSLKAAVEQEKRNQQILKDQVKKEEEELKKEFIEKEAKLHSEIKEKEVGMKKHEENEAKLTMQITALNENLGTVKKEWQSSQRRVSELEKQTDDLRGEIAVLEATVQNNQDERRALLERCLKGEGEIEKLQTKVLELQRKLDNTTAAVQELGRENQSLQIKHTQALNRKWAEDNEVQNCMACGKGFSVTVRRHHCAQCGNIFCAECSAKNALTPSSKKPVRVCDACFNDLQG

No constants are given. Whether binding was seen depends on the method and setting. In cells and extracts the contact can be indirect. Some results given as binding are weak or reduced against the parent protein; the word gives no strength.

One test addresses EGFP-Rab5 (UniProt P20339). Description: FRET or BRET; FLIM-FRET in fixed (4% paraformaldehyde) transfected RPE1 cells; EGFP donor lifetime read with an RFP acceptor; pixel-wise lifetime fitting; Leica SP8 Falcon; also done on SAR405-treated cells.
Test [1] concerns the target T1, mRFP-Rab5 (UniProt P18066).
T1 sequence: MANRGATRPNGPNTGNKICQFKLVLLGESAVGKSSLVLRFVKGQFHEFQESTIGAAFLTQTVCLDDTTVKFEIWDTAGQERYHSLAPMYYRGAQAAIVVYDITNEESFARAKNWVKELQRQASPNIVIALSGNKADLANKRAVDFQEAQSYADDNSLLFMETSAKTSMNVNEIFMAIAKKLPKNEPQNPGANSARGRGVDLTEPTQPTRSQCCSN
The test is described as above.

Test [2] has as its target T1, mRFP-Rab5. Description: FRET or BRET; live-cell FLIM-FRET in transfected RPE1 cells; EGFP lifetime fitted with two components (τ1 = 1.006 ns, τ2 = 2.600 ns) and photons split into an 'NT EEA1' and a 'CT EEA1' channel. In general terms: BRET reads energy transfer from a luciferase to a nearby fluorophore.

“EEA1 TagRFP-T (from UniProt Q15075 1-1411)”: the binding entry in the test with EGFP-Rab5 is given as “binds”.

“EEA1-CTmut TagRFP-T (from UniProt Q15075 1-1411)”: in the test with EGFP-Rab5, the binding result is listed as “binds”.

As for EGFP-EEA1 (from UniProt Q15075 1-1411), the binding result with mRFP-Rab5 [1] and with mRFP-Rab5 [2] was “binds” in each case.
